In patent US20140328797A1:

Experiments:
[1] = molecular target: HRV-64 (human rhinovirus); test: imaging of infected, fixed, permeabilized HeLa cells; Alexafluor-647 anti-human Fc
[2] = molecular target: HRV-48 (human rhinovirus); test: as above
[3] = molecular target: HRV-26 (human rhinovirus); test: as above
[4] = molecular target: HRV-C untagged C15 virus strain (human rhinovirus); test: immunofluorescence microscopy, fixed and permeabilized transfected HeLa cells
[5] = molecular target: HRV-C untagged C15 virus strain (human rhinovirus); test: immunofluorescence on HeLa cells transfected with HRV-C genomic RNA
[6] = molecular target: HRV-C untagged C15 virus strain (human rhinovirus); test: summary of Example 3
[7] = molecular target: HRV-76 (human rhinovirus); test: imaging of infected, fixed, permeabilized HeLa cells; mAb at 2 µg/ml
[8] = molecular target: HRV-28 (human rhinovirus); test: as above
[9] = molecular target: HRV-36 (human rhinovirus); test: as above
[10] = molecular target: HRV-75 (human rhinovirus); test: as above
[11] = molecular target: HRV-37 (human rhinovirus); test: as above
[12] = molecular target: HRV-84 (human rhinovirus); test: as above
[13] = molecular target: HRV-29 (human rhinovirus); test: as above
[14] = molecular target: HRV-54 (human rhinovirus); test: as above
[15] = molecular target: HRV-51 (human rhinovirus); test: as above
[16] = molecular target: HRV-52 (human rhinovirus); test: as above
[17] = molecular target: HRV-88 (human rhinovirus); test: as above
[18] = molecular target: HRV-74 (human rhinovirus); test: as above
[19] = molecular target: HRV-45 (human rhinovirus); test: as above
[20] = molecular target: HRV-70 (human rhinovirus); test: as above
[21] = molecular target: HRV-86 (human rhinovirus); test: as above
[22] = molecular target: HRV-08 (human rhinovirus); test: as above
[23] = molecular target: HRV-34 (human rhinovirus); test: as above
[24] = molecular target: HRV-40 (human rhinovirus); test: as above
[25] = molecular target: HRV-62 (human rhinovirus); test: as above
[26] = molecular target: HRV-31 (human rhinovirus); test: as above
[27] = molecular target: HRV-21 (human rhinovirus); test: as above
[28] = molecular target: HRV-12 (human rhinovirus); test: as above
[29] = molecular target: HRV-24 (human rhinovirus); test: as above
[30] = molecular target: HRV-23 (human rhinovirus); test: as above
[31] = molecular target: HRV-93 (human rhinovirus); test: as above
[32] = molecular target: HRV-63 (human rhinovirus); test: as above
[33] = molecular target: HRV-67 (human rhinovirus); test: as above
[34] = molecular target: HRV-49 (human rhinovirus); test: as above
[35] = molecular target: HRV-13 (human rhinovirus); test: as above
[36] = molecular target: HRV-83 (human rhinovirus); test: as above
[37] = molecular target: HRV-61 (human rhinovirus); test: as above
[38] = molecular target: HRV-38 (human rhinovirus); test: as above

B1: TCN-711 (6893_E11) (antibody, human IgG1, lambda, V domains shown)
VH: QVQLHQWGTGVLKPSGTLSLTCGVYGGSLTDFYWTWIRQSPARGLEWLGEIDRDGATYYNPSLKSRITISIDTSKKQFSLNLRSVTAADRAVYYCARRPMLRGVWGNFRSNWFDPWGQGTQVTVSS
VL: QSVLTQPPSVSAAPGQKVSISCSGSSSNIGYSYVSWYQQVPGSAPKLLIYENNKRPSGIPDRFSASKSGTSATLDITGLQTGDEADYYCGTWDTRLFGGVFGGGTKLTVLG
- binding [1]: no binding (tested: 2 µg/ml)
- binding [2]: no binding (tested: 2 µg/ml)
- binding [3]: no binding (tested: 2 µg/ml)
- binding [4]: binds
- binding [5]: binds
- binding [6]: binds
- binding [7]: binds
- binding [8]: binds
- binding [9]: binds
- binding [10]: binds
- binding [11]: binds
- binding [12]: binds
- binding [13]: binds
- binding [14]: binds
- binding [15]: binds
- binding [16]: binds
- binding [17]: binds
- binding [18]: binds
- binding [19]: binds
- binding [20]: binds
- binding [21]: binds
- binding [22]: binds
- binding [23]: binds
- binding [24]: binds
- binding [25]: binds
- binding [26]: binds
- binding [27]: binds
- binding [28]: binds
- binding [29]: binds
- binding [30]: binds
- binding [31]: binds
- binding [32]: binds
- binding [33]: binds
- binding [34]: binds
- binding [35]: binds
- binding [36]: binds
- binding [37]: binds
- binding [38]: binds

Results are given in words; binding and its absence hold for the method and conditions named. For some assays here: Binding can be weak; no strength is given.
